Data from PubChem BioAssay AID2685 (National Center for Advancing Translational Sciences (NCATS), 2010).
The list shows a part of the results. These are further read-outs of the screen, such as a control signal, another cell line or another target. No call is given for them. The list favours compounds with an active or inconclusive main result. Words in brackets tell the shape of the fitted curve; partial curves, single points and poor fits give uncertain potencies.

Test: qHTS Assay for Lipid Storage Modulators in Drosophila S3 Cells;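 on cell number change: cells counted by Cell Tracker Red CMTPX staining in the red channel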
Details: BODIPY lipid droplet fluorescence, 18-24 h; for cell number change: measured here: cell count max response, cells fed with added oleic acid
Procedure, shortened: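 Drosophila S3 cells got compounds at several concentrations plus oleic acid (400 uM solution). Laser-scanning cytometry with 488 nm excitation read lipid droplets at 500-530 nm and cells at 575-640 nm. Percent activity was relative to 20 uM Triacsin C.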

[1] = measured here: lipid fluorescence (Fed channel) AC50, cells fed with added oleic acid
[2] = measured here: cell number channel AC50, cells fed with added oleic acid

SMILES	AC50 [1]	cell number change [%]	AC50 [2]
NC(=NCc1ccccc1)c1cccc([N+](=O)[O-])c1	0.58 µM [falling, single point]		
Cc1nn(-c2ccccc2)c(Cl)c1C(=O)NCCCCNC(=O)c1c(C)nn(-c2ccccc2)c1Cl	6.51 µM [rising, single point]	20.7	
Cc1csc(=Nc2ccccc2)n1CCCN1CCCC1=O	10 µM [rising, partial curve]	31.7	14.1 µM [rising, single point]
CC(C)[C@H](NC(=O)c1ccco1)C(=O)OCC(=O)Nc1cccc(F)c1		40.2	0.00731 µM [rising, full curve, poor fit]
CCN(CC)CCCN1C(=O)C(=O)/C(=C(/O)c2ccc3c(c2)OCCO3)C1c1ccc(C)o1 (configuration not stated)	0.291 µM [rising, partial curve]		
Cc1ccc(S(=O)(=O)CCC(=O)Nc2nc(-c3ccncc3)cs2)cc1	0.731 µM [falling, single point]	-4.48	
Cc1sc2nc(CN3CCOCC3)nc(NS(=O)(=O)c3cc(Cl)ccc3Cl)c2c1C	0.116 µM [rising, full curve, poor fit]	-5.89	
COc1ccc(OCc2nnc(SC(C)C(=O)Nc3nccs3)n2-c2ccccc2)cc1 (configuration not stated)	1.16 µM [rising, partial curve, poor fit]	-10.9	
COc1ccc(NC(=O)C(Cc2ccccc2)n2cccc2)cc1 (configuration not stated)		62.1	23.1 µM [rising, partial curve]
Cc1ccc(NC(=O)CSc2nnc(Cn3cnc4ccccc43)o2)cc1	13 µM [falling, partial curve, poor fit]	-3.7	
Cc1ccc(NC(=O)CCCCCN2C(=O)[C@@H]3Cc4ccccc4CN3C2=O)c(C)c1	29.1 µM [rising, partial curve]	19.3	
O=C(c1cc(F)ccc1F)C1CCCN(C(=O)CCCN2CCCCC2=O)C1 (configuration not stated)	5.17 µM [falling, full curve]	-28.4	
CCOc1ccc(NC(=O)C2CCN(S(C)(=O)=O)CC2)cc1	0.58 µM [rising, single point]	7.62	
Cc1cc(SCC(=O)N/N=C/c2ccc(O)c(O)c2)nc2ccccc12	29.1 µM [falling, single point]	-13.2	
COC(=O)c1ccccc1NC(=O)CN1C(=O)CSC1=O		42.1	9.2 µM [rising, partial curve]
Cc1ccc(-c2nnc(SC(C)C#N)n2N)cc1 (configuration not stated)		32	16.4 µM [rising, single point]
CCN(CC)CC(O)CN(c1ccccc1)S(=O)(=O)c1ccc2ccccc2c1 (configuration not stated)	0.13 µM [falling, full curve, poor fit]	-0.0066	
C(#CCN1CCCC1)CC(c1ccccc1)c1ccccc1	0.103 µM [rising, full curve, poor fit]	10.6	
C=CCn1c(SCC(=O)Nc2ccc(OC)cc2)nnc1-c1cnccn1	14.6 µM [rising, single point]	-20.9	

SMILES	AC50 [1]	cell number change [%]	AC50 [2]
COc1cc(/C=N/Nc2ccc(Cl)c(C(=O)O)c2)ccc1OC(=O)c1ccco1		-22.5	3.26 µM [falling, full curve, poor fit]
N#C/C(=C\c1ccc(OCc2cccc(C(=O)O)c2)cc1)C(=O)NCc1ccco1	0.326 µM [rising, full curve, poor fit]	4.38	
COc1ccc(Cl)cc1C(=O)Nc1ccc2c(c1)OCCO2	29.1 µM [falling, single point]	-6.32	
COc1ccc(CCn2c(C)cc(C(=O)COC(=O)c3ccc(NC(=O)CC#N)cc3)c2C)cc1		47.2	16.4 µM [rising, partial curve]
CC(CCc1ccccc1)NC(=O)c1ccccc1Cl (configuration not stated)	14.6 µM [rising, single point]	13.1	
COc1ccccc1N(C(=O)c1ccco1)C(C(=O)NC1CCCC1)c1ccncc1 (configuration not stated)		30	
Cc1ccc(F)c([C@H]2C3C=CCC(c4ccccc4)C3C(=O)N2Cc2ccccc2)c1 (some centres not stated)	0.411 µM [rising, full curve]	-0.818	
CSCCC(NC(=O)c1ccccc1Cl)C(=O)N1CCN(C(c2ccccc2)c2ccccc2)CC1 (configuration not stated)	29.1 µM [falling, single point]	-26.2	
O=C(c1cc(F)c(F)cc1Cl)N1CCN(c2ccc([N+](=O)[O-])c3ncccc23)CC1		5.34	
Cc1cccc(NC(=O)CCc2nnc3ccc(NCc4ccco4)nn23)n1		-11.2	4.61 µM [falling, partial curve, poor fit]
CCN(CC)c1ccc(/C=C/c2ccc3ccc(OC)cc3[n+]2CC)cc1	0.731 µM [falling, full curve, poor fit]	-97.9	5.8 µM [falling, full curve]
Cc1ccc(C(=O)Nc2nc(=O)n(C(=O)CC(C)C)s2)cc1	20.6 µM [falling, partial curve]	-67.7	29.1 µM [falling, single point]
CCC(=O)Nc1cccc(C2=NOC3(C2)C[C@@H](C(N)=O)N(C(=O)CC(c2ccccc2)c2ccccc2)C3)c1 (some centres not stated)	5.8 µM [rising, partial curve, poor fit]	23.4	
Cc1cc(NC(=O)CCC(=O)N(c2ccccc2)C(C(=O)NC2CCCC2)c2ccncc2)no1 (configuration not stated)		-7.01	
CCOC(=O)C1=NN(C(=O)c2ccco2)C2(CC2)C1	18.4 µM [rising, partial curve]	-4.47	
COC(=O)c1ccc(C)c(NC(=O)c2ccc(Cn3cc([N+](=O)[O-])cn3)o2)c1	0.651 µM [rising, partial curve]	7.66	
O=C(CCCc1nc2ccccc2s1)NCc1ccccc1F	11.6 µM [rising, single point]	17.2	
COc1ccc(N2CC(C(=O)N[C@@H](C)C(=O)NC3CCCCC3)CC2=O)cc1 (some centres not stated)		12.8	2.06 µM [rising, partial curve, poor fit]

Of the compounds above, these have a furan ring, fused or not:
SMILES	AC50 [1]	cell number change [%]	AC50 [2]
CC(C)[C@H](NC(=O)c1ccco1)C(=O)OCC(=O)Nc1cccc(F)c1		40.2	0.00731 µM [rising, full curve, poor fit]
CCN(CC)CCCN1C(=O)C(=O)/C(=C(/O)c2ccc3c(c2)OCCO3)C1c1ccc(C)o1 (configuration not stated)	0.291 µM [rising, partial curve]		
COc1cc(/C=N/Nc2ccc(Cl)c(C(=O)O)c2)ccc1OC(=O)c1ccco1		-22.5	3.26 µM [falling, full curve, poor fit]
N#C/C(=C\c1ccc(OCc2cccc(C(=O)O)c2)cc1)C(=O)NCc1ccco1	0.326 µM [rising, full curve, poor fit]	4.38	
COc1ccccc1N(C(=O)c1ccco1)C(C(=O)NC1CCCC1)c1ccncc1 (configuration not stated)		30	
Cc1cccc(NC(=O)CCc2nnc3ccc(NCc4ccco4)nn23)n1		-11.2	4.61 µM [falling, partial curve, poor fit]
CCOC(=O)C1=NN(C(=O)c2ccco2)C2(CC2)C1	18.4 µM [rising, partial curve]	-4.47	
COC(=O)c1ccc(C)c(NC(=O)c2ccc(Cn3cc([N+](=O)[O-])cn3)o2)c1	0.651 µM [rising, partial curve]	7.66	
